PubChem BioAssay AID1259425 | University of Nebraska Medical Center – 2018
Assay: 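Seek colon cancer weak points whose silencing resembles KSR1 loss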 (primary screen). Cell system: HCT116 human colon cancer cells. Reagents: siRNA pool against human genes, 50 nM siRNA. Detection: 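mRNA of six signature genes measured together by branched-DNA assay after 50 nM siRNA pool, blank removed, divided by geometric mean of two housekeeping genes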. Scale: BNIP3L mRNA: higher = more BNIP3L transcript after knockdown.
Shown is a random part of about 14,000 reagents. Not all columns of the deposit are shown. Not stated in the record: the time to read-out.

For ITGAM, what does the deposit list?
BNIP3L mRNA, set 1: 0.067

Which result is listed for SHROOM2?
BNIP3L mRNA, set 1: 0.149

For B3GALNT1, how do the results read?
BNIP3L mRNA, set 1: 0.0937

What did the screen give for CAPN10?
BNIP3L mRNA, set 1: 0.108

With CDC42SE2, what does the deposit list?
BNIP3L mRNA, set 1: 0.0873

What is on record for CYP3A4?
BNIP3L mRNA, set 1: 0.0837

Which result is listed for HIF1AN?
BNIP3L mRNA, set 1: 0.215

How did the screen score CACNA2D1?
BNIP3L mRNA, set 1: 0.102

How did the screen score TEX101?
BNIP3L mRNA, set 1: 0.142

How did the screen score CNMD?
BNIP3L mRNA, set 1: 0.179

With ABHD2, how do the results read?
BNIP3L mRNA, set 1: 0.134

How did the screen score AGL?
BNIP3L mRNA, set 1: 0.06
